Data reported in US7319015B2, “Methods and compositions for using alveolar macrophage phospholipase A2” (The Regents of The University of Michigan, priority 2004, dated 2008).

Experiments:
[1] = test system: MDCK cells
[2] = test system: MDCK cells; conditions: MDCK cells treated at the IC50 for transacylase inhibition, 7 days, FIG. 2

CCCCc1oc2ccccc2c1C(=O)c1cc(I)c(OCCN(CC)CC)c(I)c1 [Amiodarone, amiodarone]
total phospholipid content ([1]; MDCK cells incubated for up to 7 days, 15 μM, FIG. 1B): comparable but greater increases
total phospholipid content (figure legend) ([1]; MDCK cells, 7-day exposure to 15 mM, FIG. 1B): greater level of total phospholipid
content of phosphatidylethanolamine and phosphatidylcholine ([1]; MDCK cells, time-dependent changes, FIG. 1C/1D): increased
lysosomal phospholipid inclusions by electron microscopy [2]: obvious lysosomal phospholipid inclusions
